Laboratory results: PubChem BioAssay AID493014 (National Center for Advancing Translational Sciences (NCATS), 2011)
Out of some 340,000 compounds screened, about 170 (0.05%) were called active. This list was built around the results that the source calls inconclusive (neither active nor inactive); the mix of calls is not that of the screen. The call rests on the fitted dose curve; in most records, active means well fitted inhibition curve with a large enough effect in the signal ratio, with a control signal flat (not every such curve was filed as active); inconclusive means small, poorly fitted or top-dose-only effect, or effect the other way, or a change in a side signal; inactive means flat fitted curve, though single readings scatter; the % refers to the signal ratio. Where the call is inconclusive, the potency comes from a doubtful curve fit.

Test: qHTS Assay to Find Inhibitors of Chronic Active B-Cell Receptor Signaling;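 on activity change, negative = inhibition: plate controls were basal doxycycline-induced cells for no effect and cells given 10 µM MG132 for full effect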
Conditions: ABC-DLBCL IkBa-CBG/CBR reporter, luminescence ratio (green luciferase fused to IkBa over red control in TMD8 lymphoma cells), 4 h; activity change, negative = inhibition: at 46.1 µM (top of the series)
How it was run: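 Doxycycline induced both beetle luciferases in TMD8 lymphoma cells; IKK-driven degradation limits the IkappaBalpha-fused green signal, while red luminescence normalises for cell number and nonspecific effects. Compounds tested up to 46 uM, 4 hrs.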
Potency means the concentration at half of the fitted maximal effect.

Row | Structure (SMILES) | activity change, negative = inhibition | Potency
1 | COc1ccc(C2NC(c3ccc(OC)cc3)C(C)C(=O)C2C)cc1 (centres undefined) | inconclusive: 0.973% | 
2 | O=C1OCCC1Sc1nc2ccccc2c(=O)n1-c1ccc(F)cc1 (centres undefined) | inconclusive: 2.19% | 
3 | CCOc1ccc(S(=O)(=O)N2CCN(C(=O)c3cc(C4CC4)nn3-c3ccccc3)CC2)cc1 | inactive: 1.1% | 
4 | Nc1nc(NCCO)nc(NC2CCCCC2)c1[N+](=O)[O-] | inactive: 2.65% | 
5 | CCN(CC(=O)Nc1ccc(NC(C)=O)cc1)C(=O)Cc1cccc2ccccc12 | inconclusive: 1.34% | 
6 | CCN(C[C@H]1N[C@@](CC)(C(=O)OC)[C@H]2C(=O)N(C)C(=O)[C@@H]12)S(=O)(=O)c1ccc(OC)cc1 | inconclusive: 5.04% | 
7 | Cc1nc2ccccc2c(=O)n1-c1ccc(NS(=O)(=O)c2ccccc2)cc1 | inconclusive: 15% | 
8 | COc1ccc(C(CC(=O)NCCCN2CCOCC2)NS(=O)(=O)c2ccc(C)cc2)cc1 (centres undefined) | inconclusive: 6.16% | 
9 | O=C(CC(SCCO)c1ccc2c(c1)OCO2)c1cccs1 (centres undefined) |  | inconclusive: 35.5 µM [falling, single point]
10 | Nc1c(-c2ccccc2)c(CSc2nc3ccccc3[nH]2)nn1-c1ccc(C(=O)O)cc1 | inconclusive: -24.3% | 
11 | CCc1ccc(/C=C2/SC(=S)N(CCC(=O)Nc3cccc(C(=O)O)c3)C2=O)cc1 |  | inconclusive: 20 µM [falling, single point]
12 | CN(Cc1cccnc1)Cc1cn(C)nc1-c1ccc(Oc2ccccc2)cc1 | inconclusive: 4.23% | 
13 | COc1ccc2ccc(OC)c(/C=N/n3cnnc3)c2c1 | inconclusive: -8.52% | 
14 | CC1(C)CC(=O)c2sc(NC(=O)c3ccc4ncsc4c3)nc2C1 |  | inconclusive: 4.61 µM [falling, single point]
15 | c1ccc(COc2ccc(CN3CCN(c4ccccn4)CC3)cc2)cc1 | inconclusive: 3.7% | 
16 | CC(OC(=O)c1cc(=O)[nH]c2ccccc12)C(=O)Nc1ccccc1F (centres undefined) | inactive: -0.457% | 
17 | O=C(CCCOc1ccccc1)NN1C(=O)NC2(CCCCC2)C1=O | inconclusive: 6.64% | 
18 | COc1ccc(OCc2nnc(SCC(=O)Nc3ccccc3F)o2)cc1 |  | inconclusive: 25.1 µM [falling, single point]
19 | CN(Cc1cnn(C)c1)Cc1nc(COc2ccccc2)no1 | inconclusive: 8.43% | 
20 | Cn1c(SCC(=O)Nc2ccccc2)nc2ccccc2c1=O | inconclusive: 1.06% | 
21 | CCC(=O)Nc1ccc(N2CCOCC2)c(S(=O)(=O)Nc2ccc(Cl)cc2)c1 | inactive: 3.44% | 

Row | Structure (SMILES) | activity change, negative = inhibition | Potency
22 | CC1=CC(C)(C)N2C(=O)C(=Nc3ccc(O)cc3)c3cccc1c32 |  | inconclusive: 17.8 µM [falling, single point]
23 | O=C(Nc1nc2c(Cl)ccc(Cl)c2s1)C1CC1 | inconclusive: 15% | 
24 | Cc1nc(Nc2ccccc2Br)c2nnn(Cc3ccccc3)c2n1 | inactive: -0.302% | 
25 | O=C(OCC(=O)C12CC3CC(CC(C3)C1)C2)c1ccc(CO)cc1 | inconclusive: 0.785% | 
26 | NC(=S)N/N=C1\CCSc2ccc(Cl)cc21 |  | inconclusive: 17.8 µM [falling, single point]
27 | O=C(Nc1cccc(F)c1)C1CCN(C(=O)c2ccccc2Cl)CC1 | inconclusive: 29.1% | 
28 | CCCn1c(N)c(N2CCCCC2)c(=O)n(CC(=O)Nc2ccccc2)c1=O | inconclusive: -41.9% | 
29 | O=C(NC1CCC(O)CC1)c1cccc2cccnc12 (centres undefined) | inconclusive: -0.854% | 
30 | CCN1C(=O)C(C(=O)Nc2ccc(OC)cc2)C2CC1(C)Oc1ccccc12 (centres undefined) | inconclusive: -1.35% | 
31 | CC(/C=C1\SC(=S)N(c2ccc(C(=O)O)cc2)C1=O)=C\c1ccccc1 | inconclusive: -16.2% | 
32 | Cc1ccc(C)c(N=Nc2nc3ccccc3n2C)c1 |  | inconclusive: 20 µM [falling, partial curve]
33 | C=CCn1c(SCC(=O)O)nnc1-c1cccs1 | inconclusive: -1.16% | 
34 | Cc1cc2nc3c(=O)[nH]c(=O)[nH]c3nc2c([N+](=O)[O-])c1N | inactive: 1.2% | 
35 | COc1ccccc1NC(=O)COc1ccc(Br)cc1CO | inconclusive: 10.6% | 
36 | O=C(NCCCN1CCN(Cc2ccccc2)CC1)C1CCN(S(=O)(=O)N2CCC3(CC2)OCCO3)CC1 | inactive: -4.35% | 
37 | CCCCn1nc(C(=O)Nc2ccc3c(c2)OCCO3)c2ccccc2c1=O | inconclusive: -1.63% | 
38 | Cc1ccc(NC(=O)N2CCCC(c3nc(-c4ccc(F)cc4)no3)C2)cc1 (centres undefined) | inactive: 2.68% | 
39 | NCCNC(=O)c1c(NC(=O)c2ccccc2)sc2c1CCCC2 | inconclusive: -3% | 
40 | O=C(N/N=C/c1cccc(F)c1)c1ccc(Cl)cc1 |  | inconclusive: 14.1 µM [falling, single point]
41 | COc1ccc(CNC2CCCc3ccccc32)cc1OC (centres undefined) | inactive: -11.1% | 
42 | O=C(NCc1ccco1)NC1CCCCC1 | inconclusive: 13.7% | 

Row | Structure (SMILES) | activity change, negative = inhibition | Potency
43 | Cc1nn(-c2ccccc2)c(Cl)c1/C=N/Nc1nnc(C)c(=O)[nH]1 | inconclusive: -2.53% | 
44 | Fc1ccccc1OCCCCSc1ncccn1 | inconclusive: 4.32% | 
45 | C=CCn1c(=N)c(S(=O)(=O)c2ccc(C)c(C)c2)cc2c(=O)n3ccccc3nc21 | inactive: 8.4% | 
46 | O=C1CCCC2=C1C(c1cccs1)n1ncnc1N2 (centres undefined) | inconclusive: 4.24% | 
47 | CCOC(=O)c1cnc2ccccc2c1Nc1ccc2c(c1)OCCO2 | inconclusive: -17.8% | 
48 | CN(C)C(=S)Nc1ccc2c(c1)OCCO2 | inconclusive: 0.226% | 
49 | OCCNCCOCCOc1ccccc1-c1ccccc1 | inconclusive: -7.01% | 
50 | O=C(Nc1cccc(NC(=O)c2cccnc2Cl)c1)c1ccco1 |  | inconclusive: 9.2 µM [falling, partial curve]
51 | Cc1cn(C)c(CC(=O)NCc2ccc(F)cc2)c1C(=O)O | inactive: -9.62% | 
52 | COC(=O)c1cccc(CSc2nnc(C)s2)c1 | inconclusive: 2.19% | 
53 | COc1ccccc1C(=O)Nc1ccc(OCC(=O)N2CC(C)OC(C)C2)cc1 (centres undefined) | inconclusive: -3.02% | 
54 | C=CCn1c(O)c(N=NC(=S)Nc2ccccc2F)c2ccccc21 |  | inconclusive: 6.31 µM [falling, single point]
55 | CCOc1ccc(NC(=O)CN(C)C(=O)c2cc(S(=O)(=O)N(C)C)ccc2N2CCCC2)cc1OCC | inactive: -0.546% | 
56 | CC(C)(C)OC(=O)NCCCC[C@H](NC(=O)c1nc[nH]c1C(=O)NC1CCN(C(=O)OC(C)(C)C)CC1)C(=O)OC(C)(C)C | inconclusive: -9.65% | 
57 | COc1ccc(C(=O)OCC(=O)Nc2cc(C)on2)c(OC)c1OC | inconclusive: -2.29% | 
58 | O=C(Nc1cccc(F)c1)c1ccc2c(c1)OCO2 | inconclusive: -11.9% | 
59 | Cc1cc(NC(=O)c2ccc(S(=O)(=O)N3CCc4ccccc43)cc2)no1 | inconclusive: 16.6% | 
60 | O=C(NCCN1CCCCC1)Nc1ccc(Br)cc1 | inconclusive: 4.42% | 
61 | Cc1nc(N2CCN(C)CC2)c2sc(=S)n(C)c2n1 | inconclusive: 26.9% | 
62 | CCN(CC)CCN(C(=O)CN1C(=O)c2ccccc2C1=O)c1nc2cc3c(cc2s1)OCO3 | inactive: -0.611% | 
63 | C#CCOCCOCCOCCNc1nc(N2CCN(C(=O)CCCCCCCCCCNC(=O)Cn3cc(C[C@@H](C)O)nn3)CC2)nc(N2CCN(C(=O)CCCCCCCCCCNC(=O)[C@H](CCCCN)n3cc(CCCC(=O)O)nn3)CC2)n1 | inconclusive: 3.07% | 

Row | Structure (SMILES) | activity change, negative = inhibition | Potency
64 | CC(=O)Nc1cccc(-c2csc(Nc3ncccn3)n2)c1 | inactive: 0.581% | 
65 | Cn1c(=NC(=O)CCS(=O)(=O)c2ccccc2)sc2cc(F)ccc21 | inconclusive: 12.9% | 
66 | COc1cccc(C(=O)NNC2OC(CO)C(O)C2O)c1 (centres undefined) |  | inconclusive: 3.16 µM [falling, partial curve]
67 | Cc1cccc(-c2n[nH]c([N+](=O)[O-])n2)c1 |  | inconclusive: 8.91 µM [falling, partial curve]
68 | COC(=O)Cn1cc(C(=O)C2CC2)c2ccccc21 | inconclusive: -5.29% | 
69 | CC(C)C(=O)Nc1ccc(C(=O)CN2C(=O)NC3(CCOc4ccccc43)C2=O)cc1 (centres undefined) | inconclusive: 0.487% | 
70 | O=C(CCCCCN1C(=O)CCC1=O)Nc1ccc2c(c1)OCCO2 | inconclusive: 13.3% | 
71 | CCOC(=O)C1(Cc2ccccc2)CCCN(Cc2ccccn2)C1 (centres undefined) | inactive: 0.0426% | 
72 | COc1cc(/C=C2\N=C(C)OC2=O)cc(Cl)c1OC(C)=O | inactive: -0.555% | 
73 | Cc1cccc(NC(=S)NCc2ccc3c(c2)OCO3)c1C | inactive: 3.59% | 
74 | Cn1c(=O)[nH]c(=O)c2c1nc(N1CCCCCC1)n2CC(N)=O | inconclusive: 15.2% | 
75 | COc1cc(-c2nc(-c3ccccc3)c(-c3cccs3)[nH]2)cc(OC)c1O |  | inconclusive: 29.1 µM [falling, single point]
76 | O=C(CCNC(=O)c1ccccc1Cl)Nc1ccc(S(=O)(=O)Nc2nccs2)cc1 | inactive: 0.505% | 
77 | CC1CCC(N2CC(=O)N(C3CCCC3)C(c3ccc(Cl)cc3)C2=O)CC1 (centres undefined) | inconclusive: 6.96% | 
78 | COc1ccccc1NC(=O)CC1C(=O)Nc2ccccc2N1C(=O)c1ccccc1 (centres undefined) | inactive: 1.39% | 
79 | CC(=O)Nc1cccc(/C(C)=N/NC(=O)c2cc(-c3ccncc3)nc3ccccc23)c1 | inconclusive: -18.1% | 
80 | Nc1nc(-c2ccccc2)c(N=Nc2cccnc2)s1 | inconclusive: 2.19% | 
81 | CC(C)(C)n1nnnc1C(c1ccccc1F)N1CCN(C2CCCC2)CC1 (centres undefined) | inactive: -7.02% | 
82 | COc1cccc(/C=C/c2n[nH]c(=O)c(C#N)c2C)c1 |  | inconclusive: 15.8 µM [falling, partial curve, poor fit]
83 | COc1ccccc1C1C2=C(N=c3s/c(=C/c4cccc(OCC(=O)O)c4)c(=O)n31)c1ccccc1CC2 (centres undefined) | inconclusive: 5.32% | 
84 | O=C1CS/C(=C\[N+](=O)[O-])N1c1ccc(OC(F)(F)F)cc1 | inconclusive: 6.18% | 

Entries of single compounds, quoted from the list.
c1ccc(COc2ccc(CN3CCN(c4ccccn4)CC3)cc2)cc1 reads activity change, negative = inhibition: inconclusive: 3.7%
C=CCn1c(=N)c(S(=O)(=O)c2ccc(C)c(C)c2)cc2c(=O)n3ccccc3nc21 reads activity change, negative = inhibition: inactive: 8.4%
Cc1nc(Nc2ccccc2Br)c2nnn(Cc3ccccc3)c2n1 reads activity change, negative = inhibition: inactive: -0.302%
Cn1c(=NC(=O)CCS(=O)(=O)c2ccccc2)sc2cc(F)ccc21 reads activity change, negative = inhibition: inconclusive: 12.9%
